# The supplement of paper PMC12819154, “High-throughput peptide-centric local stability assay extends protein–ligand identification to membrane proteins, tissues and bacteria” (Nature Structural & Molecular Biology, 2025)
# The chains behind the UniProt entries cited, without tags or fusion partners. Where a name states a change or a piece, a line headed by the entry shows the natural chain unless it says otherwise.
# UniProt O88908: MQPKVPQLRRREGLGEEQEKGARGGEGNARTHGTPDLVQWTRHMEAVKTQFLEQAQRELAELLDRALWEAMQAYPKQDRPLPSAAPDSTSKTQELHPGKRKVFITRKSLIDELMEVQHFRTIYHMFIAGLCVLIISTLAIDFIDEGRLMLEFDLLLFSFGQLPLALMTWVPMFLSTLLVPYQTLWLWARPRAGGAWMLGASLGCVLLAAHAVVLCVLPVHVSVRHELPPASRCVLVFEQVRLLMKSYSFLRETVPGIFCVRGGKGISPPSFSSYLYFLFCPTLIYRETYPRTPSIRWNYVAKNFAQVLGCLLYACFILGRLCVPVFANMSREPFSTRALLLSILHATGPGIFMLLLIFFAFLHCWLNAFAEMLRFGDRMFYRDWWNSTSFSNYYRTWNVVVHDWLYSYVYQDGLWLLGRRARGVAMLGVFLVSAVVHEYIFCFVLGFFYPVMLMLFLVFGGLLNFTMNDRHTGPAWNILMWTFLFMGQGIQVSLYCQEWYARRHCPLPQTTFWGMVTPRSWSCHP
# UniProt P07758: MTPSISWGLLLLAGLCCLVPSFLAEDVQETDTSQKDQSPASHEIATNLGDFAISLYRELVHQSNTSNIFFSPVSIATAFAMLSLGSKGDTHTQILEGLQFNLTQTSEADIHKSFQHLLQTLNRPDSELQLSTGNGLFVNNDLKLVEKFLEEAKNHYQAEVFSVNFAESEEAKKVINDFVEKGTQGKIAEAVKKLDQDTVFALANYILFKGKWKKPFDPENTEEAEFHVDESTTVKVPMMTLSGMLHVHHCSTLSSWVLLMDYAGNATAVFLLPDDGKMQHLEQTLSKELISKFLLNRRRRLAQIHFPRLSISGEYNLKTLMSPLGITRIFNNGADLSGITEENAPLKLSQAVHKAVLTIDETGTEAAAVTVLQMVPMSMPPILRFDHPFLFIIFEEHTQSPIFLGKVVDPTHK
# UniProt P09405, whole entry: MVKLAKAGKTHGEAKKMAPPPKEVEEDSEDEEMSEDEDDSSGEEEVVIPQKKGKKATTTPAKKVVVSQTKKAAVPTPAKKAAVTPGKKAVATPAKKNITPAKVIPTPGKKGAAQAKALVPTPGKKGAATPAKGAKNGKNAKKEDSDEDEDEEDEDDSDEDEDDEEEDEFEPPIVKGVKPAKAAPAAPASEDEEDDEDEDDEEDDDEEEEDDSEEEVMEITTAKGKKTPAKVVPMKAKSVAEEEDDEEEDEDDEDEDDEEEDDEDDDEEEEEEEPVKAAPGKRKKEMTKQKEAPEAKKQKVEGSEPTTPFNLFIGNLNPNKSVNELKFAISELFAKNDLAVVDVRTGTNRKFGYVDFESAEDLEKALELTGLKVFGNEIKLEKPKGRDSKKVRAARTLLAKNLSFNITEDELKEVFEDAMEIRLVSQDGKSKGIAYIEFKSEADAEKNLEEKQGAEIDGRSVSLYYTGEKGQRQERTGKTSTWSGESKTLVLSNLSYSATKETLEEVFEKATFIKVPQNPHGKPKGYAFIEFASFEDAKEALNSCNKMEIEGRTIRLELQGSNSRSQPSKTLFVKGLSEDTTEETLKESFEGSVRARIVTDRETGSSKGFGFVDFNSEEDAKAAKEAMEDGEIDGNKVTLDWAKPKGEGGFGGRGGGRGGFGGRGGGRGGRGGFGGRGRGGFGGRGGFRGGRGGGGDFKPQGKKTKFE
# UniProt P02802: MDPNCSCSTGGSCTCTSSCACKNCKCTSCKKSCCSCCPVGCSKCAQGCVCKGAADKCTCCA
# UniProt P11260: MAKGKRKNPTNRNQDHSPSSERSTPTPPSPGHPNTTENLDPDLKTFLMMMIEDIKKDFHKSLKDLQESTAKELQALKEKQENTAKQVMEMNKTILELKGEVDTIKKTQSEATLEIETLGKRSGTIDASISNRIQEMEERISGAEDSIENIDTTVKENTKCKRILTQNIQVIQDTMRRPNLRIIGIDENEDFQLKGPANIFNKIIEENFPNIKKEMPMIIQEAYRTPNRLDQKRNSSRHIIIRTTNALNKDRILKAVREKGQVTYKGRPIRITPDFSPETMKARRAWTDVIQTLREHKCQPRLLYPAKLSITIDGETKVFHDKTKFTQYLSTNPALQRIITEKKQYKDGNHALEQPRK
# UniProt P08207, whole entry: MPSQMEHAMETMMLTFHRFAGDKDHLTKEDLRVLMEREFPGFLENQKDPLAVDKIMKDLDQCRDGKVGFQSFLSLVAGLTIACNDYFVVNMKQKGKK
# UniProt O88942: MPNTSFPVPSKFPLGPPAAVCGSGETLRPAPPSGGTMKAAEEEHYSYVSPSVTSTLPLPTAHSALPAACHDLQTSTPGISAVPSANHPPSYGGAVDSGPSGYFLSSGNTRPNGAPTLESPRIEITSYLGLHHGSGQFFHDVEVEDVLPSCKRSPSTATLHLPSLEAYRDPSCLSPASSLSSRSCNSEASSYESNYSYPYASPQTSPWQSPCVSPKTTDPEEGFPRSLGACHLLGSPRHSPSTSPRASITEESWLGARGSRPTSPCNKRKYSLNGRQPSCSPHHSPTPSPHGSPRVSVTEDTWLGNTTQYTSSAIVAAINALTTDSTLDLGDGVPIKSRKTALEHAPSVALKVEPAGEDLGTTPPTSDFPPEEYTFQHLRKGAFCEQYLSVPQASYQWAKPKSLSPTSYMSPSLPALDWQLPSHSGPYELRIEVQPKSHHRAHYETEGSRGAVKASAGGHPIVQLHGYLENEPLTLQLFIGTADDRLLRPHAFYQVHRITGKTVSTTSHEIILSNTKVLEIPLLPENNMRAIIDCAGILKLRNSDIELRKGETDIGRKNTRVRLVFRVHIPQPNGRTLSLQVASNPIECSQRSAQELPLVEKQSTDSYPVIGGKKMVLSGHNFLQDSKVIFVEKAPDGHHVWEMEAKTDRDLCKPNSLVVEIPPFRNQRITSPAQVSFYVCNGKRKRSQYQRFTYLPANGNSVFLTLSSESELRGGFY
# UniProt O89016: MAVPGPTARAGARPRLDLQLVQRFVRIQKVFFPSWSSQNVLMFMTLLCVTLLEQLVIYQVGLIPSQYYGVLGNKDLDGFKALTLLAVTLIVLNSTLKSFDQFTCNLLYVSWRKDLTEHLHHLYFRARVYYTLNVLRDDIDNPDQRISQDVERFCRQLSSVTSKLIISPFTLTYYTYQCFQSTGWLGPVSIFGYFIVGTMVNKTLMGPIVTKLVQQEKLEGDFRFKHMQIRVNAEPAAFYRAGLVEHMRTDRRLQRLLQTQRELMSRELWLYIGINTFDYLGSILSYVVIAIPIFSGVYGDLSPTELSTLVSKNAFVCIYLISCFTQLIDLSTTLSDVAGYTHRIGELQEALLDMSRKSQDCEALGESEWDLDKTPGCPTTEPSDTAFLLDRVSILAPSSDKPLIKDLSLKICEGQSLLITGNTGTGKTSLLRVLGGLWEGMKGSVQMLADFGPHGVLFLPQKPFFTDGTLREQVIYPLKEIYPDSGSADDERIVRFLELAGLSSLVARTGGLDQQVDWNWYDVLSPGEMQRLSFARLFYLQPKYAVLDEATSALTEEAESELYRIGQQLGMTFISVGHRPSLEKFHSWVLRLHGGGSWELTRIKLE
# UniProt P15379: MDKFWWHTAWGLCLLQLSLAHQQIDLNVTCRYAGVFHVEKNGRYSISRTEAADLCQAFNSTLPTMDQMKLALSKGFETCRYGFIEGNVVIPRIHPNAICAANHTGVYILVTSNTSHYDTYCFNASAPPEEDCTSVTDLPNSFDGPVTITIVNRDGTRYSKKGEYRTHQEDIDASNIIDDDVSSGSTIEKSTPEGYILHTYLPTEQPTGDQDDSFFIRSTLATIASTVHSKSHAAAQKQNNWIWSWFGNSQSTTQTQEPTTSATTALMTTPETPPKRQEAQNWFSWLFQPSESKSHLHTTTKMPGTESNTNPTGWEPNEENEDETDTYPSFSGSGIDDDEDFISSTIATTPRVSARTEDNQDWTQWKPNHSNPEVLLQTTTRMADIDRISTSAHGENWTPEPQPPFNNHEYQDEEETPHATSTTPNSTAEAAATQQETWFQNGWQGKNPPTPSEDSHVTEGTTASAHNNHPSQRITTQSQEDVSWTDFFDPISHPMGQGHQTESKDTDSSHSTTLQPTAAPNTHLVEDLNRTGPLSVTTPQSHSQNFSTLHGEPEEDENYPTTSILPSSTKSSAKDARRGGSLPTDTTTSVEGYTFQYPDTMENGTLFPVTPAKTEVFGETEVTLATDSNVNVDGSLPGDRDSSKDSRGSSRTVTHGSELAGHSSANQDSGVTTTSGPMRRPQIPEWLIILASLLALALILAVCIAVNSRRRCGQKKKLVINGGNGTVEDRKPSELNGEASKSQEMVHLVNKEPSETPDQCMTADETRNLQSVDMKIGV
# UniProt P08249: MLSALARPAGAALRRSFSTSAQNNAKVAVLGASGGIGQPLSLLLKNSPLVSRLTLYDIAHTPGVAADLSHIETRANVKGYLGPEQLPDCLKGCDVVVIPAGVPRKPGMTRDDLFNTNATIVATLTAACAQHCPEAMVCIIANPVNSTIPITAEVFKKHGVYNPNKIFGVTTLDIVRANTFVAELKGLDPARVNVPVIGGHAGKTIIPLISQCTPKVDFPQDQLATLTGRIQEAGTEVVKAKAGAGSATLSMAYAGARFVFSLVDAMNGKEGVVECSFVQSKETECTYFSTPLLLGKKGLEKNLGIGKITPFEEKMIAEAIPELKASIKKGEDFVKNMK
# UniProt P00186: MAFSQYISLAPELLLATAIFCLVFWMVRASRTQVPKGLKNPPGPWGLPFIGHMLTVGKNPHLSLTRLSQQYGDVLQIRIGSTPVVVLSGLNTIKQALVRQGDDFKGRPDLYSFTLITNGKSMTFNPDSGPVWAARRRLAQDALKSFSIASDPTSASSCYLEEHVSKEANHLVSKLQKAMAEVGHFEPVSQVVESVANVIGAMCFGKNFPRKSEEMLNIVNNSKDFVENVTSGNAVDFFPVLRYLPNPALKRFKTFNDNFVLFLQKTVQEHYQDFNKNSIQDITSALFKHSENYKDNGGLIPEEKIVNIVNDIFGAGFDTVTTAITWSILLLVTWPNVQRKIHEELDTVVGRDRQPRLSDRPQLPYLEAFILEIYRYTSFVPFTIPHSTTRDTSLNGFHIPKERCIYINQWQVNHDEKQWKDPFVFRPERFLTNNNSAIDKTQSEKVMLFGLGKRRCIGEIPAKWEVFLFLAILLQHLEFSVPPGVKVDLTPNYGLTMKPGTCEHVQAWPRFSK
# UniProt P04919: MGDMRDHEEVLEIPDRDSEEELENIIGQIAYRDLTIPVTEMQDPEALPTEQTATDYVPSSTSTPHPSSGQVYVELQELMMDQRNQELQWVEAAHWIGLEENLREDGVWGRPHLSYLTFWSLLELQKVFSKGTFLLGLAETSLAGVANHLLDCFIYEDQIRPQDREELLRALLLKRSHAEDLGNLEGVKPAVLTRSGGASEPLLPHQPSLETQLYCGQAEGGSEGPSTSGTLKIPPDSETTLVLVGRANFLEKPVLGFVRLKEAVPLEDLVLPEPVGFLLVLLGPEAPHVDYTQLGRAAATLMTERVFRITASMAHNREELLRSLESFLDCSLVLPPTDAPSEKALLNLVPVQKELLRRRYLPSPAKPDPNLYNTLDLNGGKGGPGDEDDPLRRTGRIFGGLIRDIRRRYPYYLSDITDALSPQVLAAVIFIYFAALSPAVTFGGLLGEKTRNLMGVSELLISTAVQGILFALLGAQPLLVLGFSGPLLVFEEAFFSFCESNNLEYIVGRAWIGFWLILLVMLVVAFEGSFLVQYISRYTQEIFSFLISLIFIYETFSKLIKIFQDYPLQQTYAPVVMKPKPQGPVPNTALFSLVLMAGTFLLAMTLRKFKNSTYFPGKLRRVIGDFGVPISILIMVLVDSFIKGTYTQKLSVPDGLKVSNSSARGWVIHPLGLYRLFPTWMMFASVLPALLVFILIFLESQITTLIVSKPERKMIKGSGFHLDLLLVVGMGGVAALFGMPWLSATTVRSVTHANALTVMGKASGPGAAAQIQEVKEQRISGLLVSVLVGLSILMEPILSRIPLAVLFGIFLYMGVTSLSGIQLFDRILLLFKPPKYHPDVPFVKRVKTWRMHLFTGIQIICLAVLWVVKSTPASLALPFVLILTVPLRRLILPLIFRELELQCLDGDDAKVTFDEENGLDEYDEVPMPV
# UniProt P13412, whole entry: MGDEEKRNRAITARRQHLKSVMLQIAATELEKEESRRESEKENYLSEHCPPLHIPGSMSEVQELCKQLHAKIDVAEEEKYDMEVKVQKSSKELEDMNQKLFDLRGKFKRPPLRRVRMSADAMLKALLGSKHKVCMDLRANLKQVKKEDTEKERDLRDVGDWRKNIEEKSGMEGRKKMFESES
# UniProt P09926: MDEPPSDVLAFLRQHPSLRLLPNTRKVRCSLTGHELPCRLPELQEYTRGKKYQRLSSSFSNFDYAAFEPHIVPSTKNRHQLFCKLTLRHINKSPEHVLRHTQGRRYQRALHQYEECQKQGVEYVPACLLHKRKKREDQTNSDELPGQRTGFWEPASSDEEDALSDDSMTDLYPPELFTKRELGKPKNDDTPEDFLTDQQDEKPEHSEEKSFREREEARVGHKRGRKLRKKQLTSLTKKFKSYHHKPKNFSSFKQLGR
# This is one part of the list. Most values lie at the level of the controls, where differences are scatter.
# Compound: CN[C@@H]1C[C@H]2O[C@@](C)([C@@H]1OC)n1c3ccccc3c3c4c(c5c6ccccc6n2c5c31)C(=O)NC4 [staurosporine]
# Test: log2 fold change of tryptic peptide abundance, ligand vs vehicle (limited proteolysis) (log2 ratio); higher = more trypsin-susceptible (destabilized)
# Settings: ligand concentration: 20 uM; sample: mouse liver crude lysate; replicate design: treated separately
row,Target,log2 fold change
1,"UniProt P11881 (peptide sequence: IYYTTERDEQGSK, peptide start residue: 2226)",0.577
2,"UniProt P08607 (peptide sequence: ITLVTYECDKGYR, peptide start residue: 322)",0.192
3,"UniProt P13541 (peptide sequence: ATLEQTERAR, peptide start residue: 1691)",0.108
4,"UniProt O88908 (peptide sequence: QDRPLPSAAPDSTSK, peptide start residue: 77)",0.19
5,"UniProt P07758 (peptide sequence: KVINDFVEKGTQGK, peptide start residue: 173)",0.343
6,"UniProt P09405 (peptide sequence: SVSLYYTGEKGQR, peptide start residue: 460)",-0.239
7,"UniProt P02463 (peptide sequence: SAPFIECHGR, peptide start residue: 1610)",-0.00359
8,"UniProt P07724 (peptide sequence: KQTALAELVK, peptide start residue: 549)",0.501
9,"UniProt P02802 (peptide sequence: CAQGCVCK, peptide start residue: 44)",0.0596
10,"UniProt P11260 (peptide sequence: IQEMEER, peptide start residue: 216)",-0.135
11,"UniProt P08207 (peptide sequence: EFPGFLENQKDPLAVDK, peptide start residue: 38)",0.457
12,"UniProt P12815 (peptide sequence: YITDWQNVFR, peptide start residue: 91)",-0.165
13,"UniProt P06683 (peptide sequence: EEQEQHYPIPIDCR, peptide start residue: 29)",-0.505
14,"UniProt O88942 (peptide sequence: MVLSGHNFLQDSK, peptide start residue: 615)",0.432
15,"UniProt O89016 (peptide sequence: LHGGGSWELTR, peptide start residue: 592)",0.346
16,"UniProt P15379 (peptide sequence: LVINGGNGTVEDR, peptide start residue: 718)",-0.224

# Shown as tab-separated lines: entries from further up.
row	Target	log2 fold change
3	UniProt P13541 (peptide sequence: ATLEQTERAR, peptide start residue: 1691)	0.108
4	UniProt O88908 (peptide sequence: QDRPLPSAAPDSTSK, peptide start residue: 77)	0.19
5	UniProt P07758 (peptide sequence: KVINDFVEKGTQGK, peptide start residue: 173)	0.343
6	UniProt P09405 (peptide sequence: SVSLYYTGEKGQR, peptide start residue: 460)	-0.239
7	UniProt P02463 (peptide sequence: SAPFIECHGR, peptide start residue: 1610)	-0.00359
8	UniProt P07724 (peptide sequence: KQTALAELVK, peptide start residue: 549)	0.501
9	UniProt P02802 (peptide sequence: CAQGCVCK, peptide start residue: 44)	0.0596
10	UniProt P11260 (peptide sequence: IQEMEER, peptide start residue: 216)	-0.135
11	UniProt P08207 (peptide sequence: EFPGFLENQKDPLAVDK, peptide start residue: 38)	0.457

# Next part.

row,Target,log2 fold change
1,"UniProt P12382 (peptide sequence: KVVAFSPVTELKK, peptide start residue: 715)",-0.379
2,"UniProt P10853 (peptide sequence: KESYSVYVYK, peptide start residue: 35)",0.242
3,"UniProt P03995 (peptide sequence: FADLTDAASR, peptide start residue: 258)",-0.257
4,"UniProt O89091 (peptide sequence: MELISEKPR, peptide start residue: 16)",0.873
5,"UniProt P08249 (peptide sequence: MIAEAIPELK, peptide start residue: 315)",-0.192
6,"UniProt P00186 (peptide sequence: YTSFVPFTIPHSTTR, peptide start residue: 376)",-0.255
7,"UniProt P11679 (peptide sequence: ASLEAAIADAEQRGEMAIK, peptide start residue: 335)",-0.305
8,"UniProt P04919 (peptide sequence: ANFLEKPVLGFVR, peptide start residue: 247)",-0.539
9,"UniProt P15508 (peptide sequence: RQEMNDKWEAR, peptide start residue: 1982)",-0.97
10,"UniProt P10648 (peptide sequence: SHGQDYLVGNR, peptide start residue: 142)",0.131
11,"UniProt P08032 (peptide sequence: GLADVQNLLR, peptide start residue: 716)",0.184
12,"UniProt P13412 (peptide sequence: MSADAMLK, peptide start residue: 117)",0.382
13,"UniProt P09926 (peptide sequence: QGVEYVPACLLHK, peptide start residue: 119)",0.26
14,"UniProt P00920 (peptide sequence: DFPIANGDR, peptide start residue: 19)",-0.144
15,"UniProt P11725 (peptide sequence: LQAFQGYQVTMKTAK, peptide start residue: 278)",0.645
